Results deposited as PubChem BioAssay AID1259254 (NCATS, 2017).
The deposit covers about 59,000 reagents; below is a part drawn at random. About 1,550 of them (2.6%) count as active. 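G2 share is only a proxy for re-replication; each gene was hit by three separate siRNAs, and active genes were retested.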 The numbers tell different reagents against one gene apart. Further read-outs or replicates are left out here. Not stated in the record: the amount of reagent.

Purpose: 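Genome-wide screen for genes that prevent DNA re-replication in cancer cells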 (primary screen)
Cells: human HCT116 colorectal cancer cells
Reagents: single siRNA against human genes
Timing: 3 days
Measured: 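Imaged Hoechst DNA stain sorts each cell into a cycle phase by DNA amount; per plate, G2 fraction set to 0% for non-targeting and 100% for GMNN siRNA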
Reading the numbers: G2 robust z-score: higher = more G2 cells, more excess DNA replication
Active means: 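An siRNA counts as active if its G2 robust z-score lies at least 5 MADs above the screen median; here such calls match roughly 38% of GMNN control or more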

Target gene | siRNA no. | G2 robust z-score | call
OR2F2 | 1 | 1.06 | inactive
OR2F2 | 2 | -0.197 | inactive
OR2F2 | 3 | -0.34 | inactive
RDH13 | 1 | 0.941 | inactive
RDH13 | 2 | -0.579 | inactive
RDH13 | 3 | 0.187 | inactive
CAPN12 | 1 | 0.832 | inactive
CAPN12 | 2 | -0.308 | inactive
CAPN12 | 3 | 0.614 | inactive
KRTAP4-12 | 1 | -0.12 | inactive
KRTAP4-12 | 2 | -0.493 | inactive
KRTAP4-12 | 3 | 0.285 | inactive
ZNF326 | 1 | -0.6 | inactive
ZNF326 | 2 | 1.84 | inactive
ZNF326 | 3 | -1.01 | inactive
EPCIP | 1 | -0.594 | inactive
EPCIP | 2 | -0.789 | inactive
EPCIP | 3 | 2.65 | inactive
FAM209A | 1 | -0.529 | inactive
FAM209A | 2 | -1.14 | inactive
FAM209A | 3 | 0.356 | inactive
PIMREG | 1 | -1.01 | inactive
PIMREG | 2 | -0.0937 | inactive
PIMREG | 3 | -1.11 | inactive
TIMM10 | 1 | -1.09 | inactive
TIMM10 | 2 | 3.36 | inactive
TIMM10 | 3 | 2.54 | inactive
UBE2E3 | 1 | 0.032 | inactive
UBE2E3 | 2 | -0.686 | inactive
UBE2E3 | 3 | 1.29 | inactive
IMP4 | 1 | 1.16 | inactive
IMP4 | 2 | 1.11 | inactive
IMP4 | 3 | -0.146 | inactive
PF4V1 | 1 | 0.963 | inactive
PF4V1 | 2 | 1.3 | inactive
PF4V1 | 3 | -0.558 | inactive
CLDN12 | 1 | 0.115 | inactive
CLDN12 | 2 | 0.462 | inactive
CLDN12 | 3 | -0.847 | inactive
SYNJ2 | 1 | 0.252 | inactive
SYNJ2 | 2 | 0.386 | inactive
SYNJ2 | 3 | -0.363 | inactive
RFNG | 1 | 0.665 | inactive
RFNG | 2 | 1.42 | inactive
RFNG | 3 | -0.464 | inactive
CIRBP-AS1 | 1 | -0.37 | inactive
CIRBP-AS1 | 2 | -0.428 | inactive
CIRBP-AS1 | 3 | -0.987 | inactive
FBXO24 | 1 | 0.657 | inactive
FBXO24 | 2 | -0.993 | inactive
FBXO24 | 3 | -0.449 | inactive
NEK10 | 1 | -0.404 | inactive
NEK10 | 2 | -0.941 | inactive
NEK10 | 3 | 0.0413 | inactive
ZNF124 | 1 | -0.0569 | inactive
ZNF124 | 2 | -1.18 | inactive
ZNF124 | 3 | 0.316 | inactive
ABCA17P | 1 | 0.976 | inactive
ABCA17P | 2 | 0.511 | inactive
ABCA17P | 3 | -0.376 | inactive
FAM81A | 1 | -0.0759 | inactive
FAM81A | 2 | 0.149 | inactive
FAM81A | 3 | -0.297 | inactive
DYNLL2 | 1 | 6.4 | active
DYNLL2 | 2 | 1.47 | inactive
DYNLL2 | 3 | -0.134 | inactive
S100A3 | 1 | -0.0857 | inactive
S100A3 | 2 | -0.29 | inactive
S100A3 | 3 | 0.579 | inactive
DKK3 | 1 | -0.715 | inactive
DKK3 | 2 | 0.701 | inactive
DKK3 | 3 | -0.00985 | inactive
SUMO1 | 1 | -0.00635 | inactive
SUMO1 | 2 | 5.17 | active
SUMO1 | 3 | 1.79 | inactive
CCR5 | 1 | 3 | inactive
CCR5 | 2 | 0.839 | inactive
CCR5 | 3 | -0.0884 | inactive
USP15 | 1 | -1.2 | inactive
USP15 | 2 | -0.388 | inactive
USP15 | 3 | 0.522 | inactive
ELK1P1 | 1 | -0.192 | inactive
ELK1P1 | 2 | 1.85 | inactive
ELK1P1 | 3 | 0.371 | inactive
OR1L1 | 1 | -0.877 | inactive
OR1L1 | 2 | 2.85 | inactive
OR1L1 | 3 | -0.0538 | inactive
